{"source": "PubChem BioAssay AID1259424 – University of Nebraska Medical Center, 2018", "assay": "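Seek colon cancer survival genes behaving like KSR1, using a six-gene signature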 (primary screen)", "cells": "human HCT116 colon cancer cells", "knock-down reagent": "siRNA pool against human genes, 50 nM", "measured": "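Log2 levels of six mRNAs (branched-DNA multiplex), adjusted by two reference genes and the non-targeting median, then scored against the average KSR1 knockdown pattern as Pearson r and euclidean distance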", "scale": "mean correlation with KSR1 profile: higher = expression change more like KSR1 knockdown", "note": "The deposit covers about 14,000 reagents; shown is an unselected part. 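Higher correlation or smaller distance means closer resemblance to KSR1 loss; control wells, including KSR1 knockdowns, recur on many plates.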 Further read-outs or replicates are left out here. The record does not give: the time to read-out."}
{"target gene": "KCNA6 (potassium voltage-gated channel subfamily A member 6)", "mean correlation with KSR1 profile": -0.327}
{"target gene": "WNT7B (Wnt family member 7B)", "mean correlation with KSR1 profile": -0.184}
{"target gene": "AP3B2 (adaptor related protein complex 3 subunit beta 2)", "mean correlation with KSR1 profile": -0.349}
{"target gene": "ARHGAP29 (Rho GTPase activating protein 29)", "mean correlation with KSR1 profile": -0.202}
{"target gene": "KRTAP1-3 (keratin associated protein 1-3)", "mean correlation with KSR1 profile": 0.559}
{"target gene": "HSP90AB1 (heat shock protein 90 alpha family class B member 1)", "mean correlation with KSR1 profile": 0.065}
{"target gene": "ATP8B4 (ATPase phospholipid transporting 8B4 (putative))", "mean correlation with KSR1 profile": 0.796}
{"target gene": "NXF2 (nuclear RNA export factor 2)", "mean correlation with KSR1 profile": -0.464}
{"target gene": "ADAM8 (ADAM metallopeptidase domain 8)", "mean correlation with KSR1 profile": -0.403}
{"target gene": "TAS2R39 (taste 2 receptor member 39)", "mean correlation with KSR1 profile": 0.677}
{"target gene": "SCYL2 (SCY1 like pseudokinase 2)", "mean correlation with KSR1 profile": 0.0747}
{"target gene": "PTDSS2 (phosphatidylserine synthase 2)", "mean correlation with KSR1 profile": 0.79}
{"target gene": "BPY2 (basic charge Y-linked 2)", "mean correlation with KSR1 profile": -0.137}
{"target gene": "DPYSL5 (dihydropyrimidinase like 5)", "mean correlation with KSR1 profile": -0.765}
{"target gene": "PFKFB2 (6-phosphofructo-2-kinase/fructose-2,6-biphosphatase 2)", "mean correlation with KSR1 profile": 0.328}
{"target gene": "HDGFL2 (HDGF like 2)", "mean correlation with KSR1 profile": 0.596}
{"target gene": "ITGAV (integrin subunit alpha V)", "mean correlation with KSR1 profile": 0.0112}
{"target gene": "OR11A1 (olfactory receptor family 11 subfamily A member 1)", "mean correlation with KSR1 profile": 0.175}
{"target gene": "UHMK1 (U2AF homology motif kinase 1)", "mean correlation with KSR1 profile": -0.145}
{"target gene": "BRS3 (bombesin receptor subtype 3)", "mean correlation with KSR1 profile": 0.587}
{"target gene": "MYF6 (myogenic factor 6)", "mean correlation with KSR1 profile": 0.0257}
{"target gene": "SAT1 (spermidine/spermine N1-acetyltransferase 1)", "mean correlation with KSR1 profile": 0.612}
{"target gene": "MMP2 (matrix metallopeptidase 2)", "mean correlation with KSR1 profile": 0.307}
{"target gene": "FAAP100 (FA core complex associated protein 100)", "mean correlation with KSR1 profile": 0.855}
{"target gene": "MRPS26 (mitochondrial ribosomal protein S26)", "mean correlation with KSR1 profile": -0.594}
{"target gene": "LMBRD1 (LMBR1 domain containing 1)", "mean correlation with KSR1 profile": 0.561}
{"target gene": "VWA8 (von Willebrand factor A domain containing 8)", "mean correlation with KSR1 profile": -0.396}
{"target gene": "USP32P2 (ubiquitin specific peptidase 32 pseudogene 2)", "mean correlation with KSR1 profile": 0.329}

Ordered by “mean correlation with KSR1 profile” (highest first): 2 of the entries above
{"target gene": "PTDSS2 (phosphatidylserine synthase 2)", "mean correlation with KSR1 profile": 0.79}
{"target gene": "BPY2 (basic charge Y-linked 2)", "mean correlation with KSR1 profile": -0.137}
